Results are given in words; binding and its absence hold for the method and conditions named.
Molecular target: Cgo2 (ALPR1_12690), bacterial two-hybrid fusion (Algoriphagus machipongonensis) (UniProt A3HTA9)
Experiment: two-hybrid; bacterial two-hybrid (BACTH), T18 and T25 adenylate cyclase fusions at N and C termini in E. coli BTH101; X-gal spot assay and ONPG β-galactosidase assay (Miller units); induction 1.0 mM IPTG, 8 h, 30 °C

For “Cgo1 (ALPR1_12695), bacterial two-hybrid fusion (from UniProt A3HTB0 1-498)”, which binding is on record?
The binding was “no binding”.
